From paper PMC8263009
These are yes or no findings as the source states them, for the method shown. In cells and extracts the contact can be indirect. Some binding calls cover weakened binding; strength is not graded here.

Molecular target: T1, WHITE COLLAR protein WC-2 (Neurospora (endogenous in Neurospora extracts)) (UniProt P78714)
T1 sequence: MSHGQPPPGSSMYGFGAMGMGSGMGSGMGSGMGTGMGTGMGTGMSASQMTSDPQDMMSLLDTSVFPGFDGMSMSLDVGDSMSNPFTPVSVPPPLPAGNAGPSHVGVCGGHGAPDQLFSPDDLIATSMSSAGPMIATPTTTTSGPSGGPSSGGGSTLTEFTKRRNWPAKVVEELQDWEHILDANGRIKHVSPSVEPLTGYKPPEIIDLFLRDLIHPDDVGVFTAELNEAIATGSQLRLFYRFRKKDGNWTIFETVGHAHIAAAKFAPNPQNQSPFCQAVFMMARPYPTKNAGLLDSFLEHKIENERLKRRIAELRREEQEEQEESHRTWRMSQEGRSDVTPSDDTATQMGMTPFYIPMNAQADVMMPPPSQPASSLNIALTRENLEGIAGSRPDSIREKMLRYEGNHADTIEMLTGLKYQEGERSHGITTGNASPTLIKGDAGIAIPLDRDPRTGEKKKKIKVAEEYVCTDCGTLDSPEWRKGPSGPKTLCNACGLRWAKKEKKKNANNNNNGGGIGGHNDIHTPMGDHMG
Test: co-IP; WC-2 antibody and GammaBind G Sepharose on 2 mg extract of the wild-type strain grown at different temperatures in constant light; blot for FRQ and WC-2

binding: binds
B1: FREQUENCY (FRQ), wild type (protein, UniProt P19970 1-989)
chain: MADSGDKSQGMRPPPFDSRGHPLPRRASPDKSITLENHRLARDTSSRVTSSSALGVTESQPQLKSSPTRRNSSGESEPTNWFNQSNRNPAAAFHDESHIMEVDPPFYQKETDSSNEESRYPPGRNPVHPPGGVQLPGFRPVAAHSSAADDYRSVIDDLTVENKRLKEELKRYKQFGSDVMRKEKLFEIKVHGLPRRKKRELEATLRDFAASLGDSSESTSQRRKTGRHGTAVHSSGVSLSKHDSSSSSRSRPVDSAYNSMSTGRSSHAPHSSGPSLGRPSLTRAKSVGTQKVENYLRDTPDGLLPHHIVMTDKEKKKLVVRRLEQLFTGKISGRNMQRNQSMPSMDAPLAPEGTNMAPPRPPPEGLREACIQLQDGDNPRKNRSSKDNGSASNSGGDQTELGGTGTGSGDGSGSGGRTGNNTSPPGAIAPDQRPTRPRDLDPDRVQIPSENMDYIRHLGLVSPEFLQGSRTSYQDVAPDAEGWVYLNLLCNLAQLHMVNVTPSFIRQAVSEKSTKFQLSADGRKIRWRGGTDGTKFSSDSSEDKSQQSPMTEDTEDGSDKNGRRKKRKTQQASSEIGRFGPSRSPSDTFHYKPMFVHRNSSSIETSLEESMSQGSEDAVDESNMGNSKWDFSGSGTTQQRRKRRYDGAIVYYTGAPFCTDLSGDPGDMSPTAQMTAGREVEGSGSGDEVEHVLQRTLSGSSLPIRPLSDDRARVAEVLDFDPGNPPELVADDGSSPNDEDFVFPWCEDPAKVRIQPIAKEVMEPSGLGGVLPDDHFVMLVTTRRVVRPILQRQLSRSTTSEDTAEFIAERLAAIRTSSPLPPRSHRLTVAPLQVEYVSGQFRRLNPAPLPPPAIFYPPFSTDSSWDDGDDLASDDEEVEEVEEDSYSEGQISRRANPHFSDNNTYMRKDDLAFDTETDVRMDSDDNRLSDSGHNMRAMMPRAEAVDGDDSPLAAVTGKEVDMLHTGSSVATAGGAESGYSSSMEDVSSS
